“And” between values parts separate entries of the source, which are not always exact repeats. Equal values may be shown once. The campaign covered roughly 580,000 compounds. About 6,100 (1.1%) were called active. The inconclusive results got no clear call from the source; some entries with a clear call stand among them for comparison. The call rests on the fitted dose curve; in most records, active means well fitted inhibition curve with a large enough effect; inconclusive means small, poorly fitted or top-dose-only effect, or another doubt; inactive means no such curve, though single readings can be large or run the other way. Potencies beside an inconclusive call are fits to weak or partial responses and may not hold up.
What follows are molecules tested against Polyunsaturated fatty acid lipoxygenase ALOX12 (Homo sapiens) (UniProt P18054) (assay: Primary qHTS assay for inhibitors of human arachidonate 12S-lipoxygenase (ALOX12): Round 2). Conditions: purified 12hLO, xylenol orange hydroperoxide absorbance; series mostly up to 108 µM.
In short: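 Purified human 12hLO (150 nM final) in 25 mM Hepes, 0.01% Triton X-100, pH 7.0 was preincubated 15 min at room temperature with compound. Then 40 uM arachidonic acid was added, 30 min. Hydroperoxide was read by Fe-XO absorbance ratio 573/405 nm.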
Potency means the concentration at half of the fitted maximal effect.

The chains behind the UniProt entries cited, without tags or fusion partners.
UniProt P18054, whole entry, looked up: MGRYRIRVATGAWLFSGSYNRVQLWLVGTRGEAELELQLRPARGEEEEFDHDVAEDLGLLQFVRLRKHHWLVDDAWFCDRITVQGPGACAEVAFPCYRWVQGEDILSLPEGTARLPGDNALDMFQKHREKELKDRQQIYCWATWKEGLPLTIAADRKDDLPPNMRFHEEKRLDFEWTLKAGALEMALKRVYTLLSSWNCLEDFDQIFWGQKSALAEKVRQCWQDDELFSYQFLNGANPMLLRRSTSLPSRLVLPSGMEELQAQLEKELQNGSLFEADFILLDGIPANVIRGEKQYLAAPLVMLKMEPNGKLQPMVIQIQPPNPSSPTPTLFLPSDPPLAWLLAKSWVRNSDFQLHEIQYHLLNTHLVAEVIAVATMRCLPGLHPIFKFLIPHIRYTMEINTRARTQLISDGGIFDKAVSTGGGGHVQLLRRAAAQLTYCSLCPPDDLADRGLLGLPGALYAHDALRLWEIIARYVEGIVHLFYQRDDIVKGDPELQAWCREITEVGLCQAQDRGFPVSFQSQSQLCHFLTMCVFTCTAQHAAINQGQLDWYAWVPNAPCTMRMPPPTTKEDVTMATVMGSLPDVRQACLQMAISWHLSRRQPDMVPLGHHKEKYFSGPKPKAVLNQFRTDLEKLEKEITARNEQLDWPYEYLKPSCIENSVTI

Structure (SMILES)	Potency
O=C(NCCc1ccccn1)c1ccc2ccccc2c1	inconclusive: 0.199 µM [inhibitor, single point]
Cn1c(=O)c2c(nc(NCc3ccco3)n2Cc2ccccc2Cl)n(C)c1=O	inactive
COC(=O)c1cc(S(=O)(=O)Nc2nn(C)c3ccccc23)oc1C	inconclusive: 112 µM [inhibitor, partial curve, poor fit]
CC1(C)Oc2ccc3ccc(=O)oc3c2C[C@H]1O[C@@H]1O[C@H](CO)[C@@H](O)[C@H](O)[C@H]1O	inactive
Cc1noc(C)c1S(=O)(=O)N1CCN(S(=O)(=O)c2ccccc2C#N)CC1	inconclusive: 126 µM [inhibitor, single point]
O=C1CCC[C@H]2[C@@H](Cc3ccccc3)[C@@H](NS(=O)(=O)c3ccccc3)CC[C@]23CCCN13	inconclusive: 44.7 µM [inhibitor, partial curve, poor fit]
CCOc1ccc(CNC(=O)Cn2nc(C)c3c(C)n(-c4ccc(C)cc4)nc3c2=O)cc1	inactive and inconclusive: 141 µM [inhibitor, partial curve, poor fit]
CC(C)C(=O)Nc1nc2c(s1)CC(C(C)(C)C)CC2 (centres undefined)	inconclusive: 79.4 µM [inhibitor, partial curve, poor fit]
CCn1cc(C(=O)NCc2cccc(F)c2)c(=O)c2cc(F)c(N3CCN(C(=O)c4ccco4)CC3)cc21	inconclusive: 56.2 µM [inhibitor, single point]
CC1(C)CC2=C(CO1)C(=S)NC(c1ccccc1)N2CC1CCCO1 (centres undefined)	inconclusive: 44.7 µM [inhibitor, partial curve, poor fit]
O=C(NCC(c1ccco1)N1CCc2ccccc2C1)c1cccc(F)c1 (centres undefined)	inconclusive: 8.91 µM [inhibitor, partial curve, poor fit]
CC(=O)c1ccc(-n2nnnc2SCC(=O)NC2CCCCC2)cc1	inactive
O=C(c1cc(C2CC2)nn1-c1ccccc1)N1CCN(Cc2ccncc2)CC1	inconclusive: 35.5 µM [inhibitor, partial curve]
Cc1ccc(-n2c(=S)sc3c(=O)n(-c4ccc(F)cc4)c(SCC(=O)O)nc32)cc1C	inactive
CC(=O)c1ccc(-n2c(CCC(=O)O)ccc2-c2cccs2)cc1	inconclusive: 20 µM [inhibitor, partial curve, poor fit] and inconclusive: 15.8 µM [inhibitor, partial curve, poor fit]
O=C(CCS(=O)(=O)c1ccccc1)N(Cc1cccnc1)c1nc2ccc(F)cc2s1	inconclusive: 100 µM [inhibitor, partial curve, poor fit]
COC(=O)Cn1c2ccc(OC)cc2c2nc3ccccc3nc21	inconclusive: 5.01 µM [inhibitor, full curve, poor fit]
COc1ccc(-c2cnc(C)o2)cc1S(=O)(=O)Nc1ccc(OC(F)(F)F)cc1	inconclusive: 79.4 µM [inhibitor, partial curve, poor fit] and inconclusive: 39.8 µM [inhibitor, partial curve, poor fit]
CC(C)CNC(=O)NC(=O)CN(C(C)C)C1CC1	inactive
C#CCN(C)C(=O)[C@@H]1CCCN1[C@@H](C(=O)NC)c1ccccc1	inconclusive: 8.91 µM [inhibitor, partial curve, poor fit]
O=S(=O)(c1ccc(Cl)s1)N1CCN(C/C=C/c2ccccc2)CC1	inconclusive: 0.631 µM [inhibitor, full curve]
CSCC(=O)N1CCCC(CO)(CCCc2ccccc2)C1 (centres undefined)	inconclusive: 3.16 µM [inhibitor, full curve, poor fit]

Structure (SMILES)	Potency
CCOc1ccc([N+](=O)[O-])cc1CNC1CCCCCCC1	inconclusive: 6.31 µM [inhibitor, full curve, poor fit]
O=C(CCn1c(=O)c2ccccc2n(CC(=O)NCCC2=CCCCC2)c1=O)NCc1ccco1	inconclusive: 7.08 µM [inhibitor, full curve, poor fit]
CCOc1ccccc1C(=O)Nc1ccc(OCC)c2ncccc12	inconclusive: 100 µM [inhibitor, single point]
CC(C)NC(=S)Nc1c(N)[nH]c(=O)[nH]c1=O	inconclusive: 31.6 µM [inhibitor, partial curve, poor fit]
CN(CC(=O)Nc1ccc(F)cc1)C(=O)COC(=O)Cc1cccs1	inconclusive: 1.41 µM [inhibitor, full curve, poor fit]
Cc1c(C)n(Cc2ccc(F)cc2)c2ccc(C(=O)NCCN3CCOCC3)cc12	inconclusive: 126 µM [inhibitor, single point]
COc1ccccc1CNC(=O)CSc1ccc(-c2sc(-c3ccccc3)nc2C)nn1	inactive
O=C(Nc1ccc(CSc2ccccc2)cc1)c1ccc(F)cc1	inconclusive: 126 µM [inhibitor, single point]
Cc1sc(NC(=O)c2cc3ccccc3s2)c(C#N)c1C	inconclusive: 28.2 µM [inhibitor, partial curve, poor fit]
CCOC(=O)N1CCN(C(=O)c2ccc3c(c2)sc2nc(-c4ccc(OC)cc4)cn23)CC1	inactive
Cc1nnc(NC(=O)C[C@H]2NC(=O)c3ccccc3NC2=O)s1	inactive
O=S(=O)(c1ccc(Cl)cc1)c1nc(-c2ccco2)oc1SCc1ccccc1F	inconclusive: 50.1 µM [inhibitor, partial curve, poor fit]
CC(=O)Nc1ccc2c(c1)C(=O)c1cccc(C(=O)O)c1-2	inconclusive: 2 µM [inhibitor, full curve, poor fit]
N#C/C(=C/c1ccc(-c2cccc(Cl)c2Cl)o1)C(=O)c1ccccc1	inconclusive: 5.01 µM [inhibitor, full curve, poor fit]
CC(Sc1ncc(-c2ccc(F)cc2)o1)C(=O)N(C)Cc1ccccc1 (centres undefined)	inconclusive: 44.7 µM [inhibitor, partial curve, poor fit]
CSCCC(NC(=O)c1ccc(Cl)cc1)C(=O)OCC(=O)NCc1ccco1 (centres undefined)	inactive
CCOCCCNC(=O)Cc1ccc(OC)c(OC)c1	inactive
COc1cc(C(c2c(C)[nH][nH]c2=O)c2c(C)[nH][nH]c2=O)ccc1OC(=O)c1cccc([N+](=O)[O-])c1	inactive
CC(=O)C1=C(c2ccccc2)NC(=S)NC1c1cc(Cl)c(OC(C)C)c(Cl)c1 (centres undefined)	active: 28.2 µM
Cc1ccc2[nH]c(=S)cc(C)c2c1	inconclusive: 50.1 µM [inhibitor, partial curve, poor fit]
COc1ccc(C2NC(=S)NC(C)=C2C(C)=O)c(OC)c1 (centres undefined)	inconclusive: 50.1 µM [inhibitor, partial curve, poor fit]
C/C(=N\NC(=S)Nc1ccccc1C)C1Cc2ccccc2C(=O)O1 (centres undefined)	inconclusive: 25.1 µM [inhibitor, partial curve, poor fit]

4 compounds already listed, arranged by molecular weight, high to low:
Structure (SMILES)	Potency
O=C(CCn1c(=O)c2ccccc2n(CC(=O)NCCC2=CCCCC2)c1=O)NCc1ccco1	inconclusive: 7.08 µM [inhibitor, full curve, poor fit]
CSCCC(NC(=O)c1ccc(Cl)cc1)C(=O)OCC(=O)NCc1ccco1 (centres undefined)	inactive
CC1(C)Oc2ccc3ccc(=O)oc3c2C[C@H]1O[C@@H]1O[C@H](CO)[C@@H](O)[C@H](O)[C@H]1O	inactive
CC(Sc1ncc(-c2ccc(F)cc2)o1)C(=O)N(C)Cc1ccccc1 (centres undefined)	inconclusive: 44.7 µM [inhibitor, partial curve, poor fit]

The listing continues.

Structure (SMILES)	Potency
COc1ccc(NC(=O)COc2ccc(Cl)cc2)c2cccnc12	inconclusive: 39.8 µM [inhibitor, partial curve, poor fit]
COc1ccc(OC)c(-c2cc(C(=O)NCCN3CCOCC3)no2)c1	inactive
CN(C(=O)Cc1c[nH]c2ccccc12)c1nc2ccccc2s1	inconclusive: 39.8 µM [inhibitor, partial curve, poor fit]
CNC(=O)c1noc([C@@H]2CC(F)(F)CN2Cc2cc(C)nn2C)n1	inactive
O=C(Nc1ccccc1SC1CCCC1)c1ccc(F)cc1	inactive
Cc1cc(C)cc(SCc2noc(C(=O)NCCN(C)C)c2C(=O)NCCN(C)C)c1	inactive
O=C(Nc1ccc(F)cc1)c1cc(S(=O)(=O)Nc2ccc(F)cc2)cs1	inactive
COc1ccccc1C1CC(c2ccccc2)=NN1S(=O)(=O)c1ccccc1 (centres undefined)	inactive
COc1cc2oc(=O)cc(-c3ccc(-c4ccc(OC(F)(F)F)cc4)cc3)c2c(OC)c1OC	inconclusive: 79.4 µM [inhibitor, single point]
Cc1cc(C(=O)O)ccc1-c1ccc(C=O)o1	inconclusive: 31.6 µM [inhibitor, partial curve, poor fit]
CC(=O)N1CCN(C(C(=O)O)c2cn(CC(=O)O)c3ccccc23)CC1 (centres undefined)	inconclusive: 8.91 µM [inhibitor, partial curve, poor fit]
CCCCNC(=S)Nc1ccc(Oc2ccccc2)cc1	inconclusive: 39.8 µM [inhibitor, partial curve, poor fit]
COc1cc(/C=C(\C#N)c2nc3ccccc3[nH]2)ccc1OC(C)C(=O)O (centres undefined)	inconclusive: 39.8 µM [inhibitor, partial curve, poor fit]
COCCn1c(-c2ccc(OC(F)(F)C(F)C(F)(F)F)cc2)nc2c1c(=O)[nH]c(=O)n2CC(C)C (centres undefined)	inactive
O=C(C1CCCCC1)N1CC(=O)N2[C@H](C1)[C@@H](c1ccc(Br)cc1)[C@@H]2CO	inconclusive: 3.98 µM [inhibitor, full curve, poor fit]
COc1cc2[nH]c(=S)nc(NC3CCCCCC3)c2cc1OC	inactive
Cc1cc(C)n2c(SCC(=O)Nc3ncc(C(F)(F)F)cc3Cl)nnc2n1	inconclusive: 1.26 µM [inhibitor, full curve, poor fit]
COCC(=O)NC[C@H]1OC[C@@H](NCc2ccc(F)cc2)[C@@H]1O	inactive
CC(C)OCCCNCC(O)c1ccccc1 (centres undefined)	inactive
O=C(O)C1=NOC2CN(Cc3c(F)cccc3Cl)CC12 (centres undefined)	inconclusive: 22.4 µM [inhibitor, single point]

Source: PubChem BioAssay AID1671190 (National Center for Advancing Translational Sciences (NCATS), 2021)
